Patent publication US20050187221A1, “Method of treating ischemia reperfusion injury” (Japan Tobacco Inc., priority 2003, published 2005)
Structures can show the parent of a compound that is named as a salt.

System: hearts of Sprague-Dawley rats (myocardial ischemia reperfusion injury)
Test: Cardiac function of isolated Langendorff-perfused rat hearts after 30 min global ischemia and 60 min reperfusion
Format: ex vivo
Conditions: 10 mg/kg intraperitoneally
Method: Sixteen Sprague-Dawley rats (300 g, male) were divided into a control group (“C group,” n=8) and a group administered (−)-ethyl N-{3,5-dichloro-2-hydroxy-4-[2-(4-methylpiperazin-1-yl)ethoxy]benzoyl}-L-phenylalaninate dihydrochloride (“J group,” n=8). All rats were anesthesized by intraperitoneal injection of sodium pentobarbital (50 mg/kg), and either (a) 0.5 mL of saline (C group) or (b) 10 mg/kg of (−)-ethyl N-{3,5-dichloro-2-hydroxy-4-[2-(4-methylpiperazin-1-yl)ethoxy]benzoyl}-L-phenylalaninate dihydrochloride dissolved in 5% mannitol (J group) was administered intraperitoneally to the rats. Anticoagulation was ensured by the intraperitoneal administration of 200 USP units of heparin. […]
After stabilization, heart rate (HR), left ventricular developed pressure (LVDP), maximum dP/dt (maximum dP/dt), and coronary flow (CF) were measured with LV diastolic pressure stabilized at 10 mm Hg. […] HR, LVDP, maximum dP/dt, and CF were continuously measured after reperfusion and analyzed using a Polygraph System (Nihon Kouden, Japan).
There were significant differences between the two groups, however, following global ischemia and reperfusion. FIGS. 1 and 2 depict the cardiac function (as measured by LVDP and maximum dP/dt) after ischemia reperfusion between the C and J groups. For the following parameters, data are expressed as mean±standard error of the mean (SEM). […]

**Q.** What does the source list for `CCOC(=O)[C@H](Cc1ccccc1)NC(=O)c1cc(Cl)c(OCCN2CCN(C)CC2)c(Cl)c1O` [(−)-ethyl N-{3,5-dichloro-2-hydroxy-4-[2-(4-methylpiperazin-1-yl)ethoxy]benzoyl}-L-phenylalaninate dihydrochloride]?
**A.** CF or HR before ischemia reperfusion, J group versus C group: no significant difference; cardiac function (LVDP and maximum dP/dt) before ischemia reperfusion, J group versus C group: no significant difference
